Test results taken from PubChem BioAssay AID540276 (National Center for Advancing Translational Sciences (NCATS), 2011).
The whole screen tested about 300,000 compounds, of which about 5,400 (1.8%) were called active. Inconclusive results, whose numbers are uncertain, are shown with a selection of clear calls. Calls follow the shape of the full dose curve; tested in HEK293 cells. Potencies beside an inconclusive call are fits to weak or partial responses and may not hold up.
Potency is read from the fitted curve at half-maximal effect.

Assay: qHTS for inhibitors of binding or entry into cells for Marburg Virus
Conditions: Marburg virus pseudotyped entry inhibition, cell reporter; series mostly up to 37.8 µM
In the case of `Cn1nc(-c2ccc(OCC(=O)Nc3cccnc3)cc2)c2ccccc2c1=O`, the Potency is reported as “inactive”.
With `O=C(NCc1ccncc1)C(=O)Nc1nc2ccccc2s1` the Potency was “inactive”.
For `CCc1ccc(-c2nc(CN3CCC(C(=O)NCc4ccc(F)cc4)CC3)c(C)o2)cc1`, the Potency was active: 20.6 µM.
In the case of `O=C(CNC(=O)C(c1ccccc1)c1ccccc1)N/N=C/c1cccnc1`, the Potency is reported as inconclusive: 0.501 µM [activator, partial curve, poor fit].
For `O=C(NC1CCCCC1)C(c1cccnc1)N(C(=O)CCl)c1cccc(Cl)c1` (centres undefined), the Potency was inconclusive: 11.2 µM [inhibitor, single point].
For `O=C(Oc1cccc2cccnc12)c1cccc(N2C(=O)C3C4CCC(C4)C3C2=O)c1` (centres undefined), the Potency was inconclusive: 35.5 µM [inhibitor, single point].
For `Cc1oc(-c2ccccc2F)nc1CS(=O)(=O)CC(=O)NCCCN1CCc2ccccc2C1`, the Potency was inconclusive: 5.8 µM [inhibitor, partial curve].
In the case of `CCOC(=O)C1=C(C)Nc2sc(C(=O)c3ccc(Br)cc3)c(N)c2C1c1ccc(C(=O)OC)cc1` (centres undefined), the Potency is reported as inconclusive: 25.9 µM [inhibitor, single point].
For `Cc1cc(C(=O)NNC(=O)CN2C(=O)NC(C)(c3ccccc3)C2=O)c(C)o1` (centres undefined), the Potency was inconclusive: 3.16 µM [activator, partial curve, poor fit].
In the case of `Cc1ccc(S(=O)(=O)N2CCN(CC(=O)Nc3ccc4c(c3)CCC4)CC2)cc1C`, the Potency is reported as inconclusive: 7.08 µM [inhibitor, partial curve, poor fit].
With `O=S(=O)(Nc1nc2ccccc2nc1Nc1cccc(S(=O)(=O)N2CCCCC2)c1)c1ccccc1` the Potency was inconclusive: 12.6 µM [inhibitor, partial curve, poor fit].
With `CCc1nc2nc(C)cc(Nc3ccc(OC)cc3)n2n1` the Potency was “inactive”.
With `COc1ccc(Cn2nnnc2C(c2cc3cc(C)ccc3[nH]c2=O)N2CCOCC2)cc1` (centres undefined) the Potency was “inactive”.
In the case of `C=CCNC(=O)c1c(Cl)cnn1-c1ccc(C)cc1`, the Potency is reported as inconclusive: 3.16 µM [activator, single point].
For `Cc1nc(NC(=O)c2ccccc2)nc2cc3c(cc12)OCO3`, the Potency was inconclusive: 2.82 µM [activator, partial curve, poor fit].
With `Cc1ccc([N+](=O)[O-])cc1NC(=S)NC(=O)C(C)(C)C` the Potency was “inactive”.
With `CCN1CCN(Cc2c(O)ccc3c(=O)c(-c4ccc(OC)c(OC)c4)c(C(F)(F)F)oc23)CC1` the Potency was inconclusive: 11.6 µM [inhibitor, partial curve].
With `O=C(CN1C(=O)NC(Cc2c[nH]c3ccccc23)C1=O)Nc1cccc(S(=O)(=O)N2CCCCCC2)c1` (centres undefined) the Potency was inconclusive: 2.24 µM [activator, partial curve].
For `COc1cccc(CN(Cc2ccco2)c2cnc(S(C)(=O)=O)nc2C(=O)Nc2cccc(Cl)c2C)c1`, the Potency was inconclusive: 10 µM [inhibitor, partial curve, poor fit].
For `CN=c1sc2ccccc2n1CC(O)COc1ccccc1` (centres undefined), the Potency was inconclusive: 17.8 µM [inhibitor, single point].
In the case of `CC(=O)Nc1cccc(-c2csc(Nc3cccc(C)n3)n2)c1`, the Potency is reported as inconclusive: 16.4 µM [inhibitor, single point].
With `COc1ccccc1OC(C)C(=O)NNC(=S)NC1CCCC1` (centres undefined) the Potency was inconclusive: 6.31 µM [inhibitor, single point].
In the case of `Fc1cccc(Cl)c1COc1ccc(-c2nnco2)cc1`, the Potency is reported as inconclusive: 15.8 µM [inhibitor, single point].
For `CC(C)CCNC(=O)CO/N=C/c1ccccc1OC(F)F`, the Potency was inconclusive: 31.6 µM [activator, single point].
In the case of `O=C(NNC(=O)c1ccccc1OCc1ccccc1)c1ccccc1O`, the Potency is reported as “inactive”.
For `COC(=O)Cn1cc(C#N)c2ccccc21`, the Potency was “inactive”.
With `Nc1nonc1-c1noc(N2CCOCC2)n1` the Potency was inconclusive: 0.447 µM [activator, single point].
In the case of `Cc1ccc(S(=O)(=O)N2CCC(C(=O)NCCC3=CCCCC3)CC2)cc1C`, the Potency is reported as inconclusive: 7.94 µM [activator, partial curve, poor fit].
For `CC(C)c1nc2sc3c(NCc4ccco4)ncnc3c2c2c1COC(C)(C)C2`, the Potency was inconclusive: 15.8 µM [inhibitor, partial curve, poor fit].
With `O=C(CC1CCCC1)Nc1ccc(Cl)c(S(=O)(=O)N2CCOCC2)c1` the Potency was inconclusive: 35.5 µM [inhibitor, single point].
For `COc1ccc(-c2nn(-c3ccccc3)cc2C(=O)NCC(c2cccs2)N2CCOCC2)cc1` (centres undefined), the Potency was inconclusive: 6.31 µM [activator, single point].
For `CC(C)=CCC/C(C)=C/C=C/C1=CC2(C)CC1(C)C(/C=C(\C)CCC=C(C)C)CC2=O` (centres undefined), the Potency was inconclusive: 3.76 µM [inhibitor, partial curve, poor fit].
In the case of `CC(C)(C)/C(O)=C/c1nc2cc(Cl)ccc2oc1=O`, the Potency is reported as inconclusive: 0.562 µM [inhibitor, full curve, poor fit].
In the case of `Cc1ccc(OC(=O)c2cccc([N+](=O)[O-])c2)c(-n2nc3ccccc3n2)c1`, the Potency is reported as “inactive”.
For `Cc1nnc(SCc2ccc(C(=O)c3ccc(Cl)cc3)o2)n1-c1ccccc1`, the Potency was inconclusive: 0.082 µM [inhibitor, partial curve, poor fit].
For `COC(=O)c1ccc(C(=O)OC)c(NC(=O)/C=C/C(=O)O)c1`, the Potency was “inactive”.
For `Cc1ccc(NC(=O)c2ccc(OCC3CCCO3)cc2)cc1` (centres undefined), the Potency was inconclusive: 35.5 µM [inhibitor, single point].
In the case of `CCOc1ccccc1NC(=O)CCCn1cc([N+](=O)[O-])cn1`, the Potency is reported as “inactive”.
For `Cc1cc(S(=O)(=O)N(Cc2ccccc2)Cc2ccc(N(C)C)cc2)ccc1-n1cnnn1`, the Potency was inconclusive: 25.9 µM [inhibitor, single point].
For `Cc1ncc([N+](=O)[O-])n1Cc1cccc2ccccc12`, the Potency was inconclusive: 2.31 µM [activator, partial curve, poor fit].
With `C[C@@](Cc1ccc(O)c(O)c1)(NN)C(=O)O` the Potency was inconclusive: 35.5 µM [inhibitor, single point].
For `CC1CCCC(NC(=O)CCNC(=O)c2ccc(Cl)cc2)C1C` (centres undefined), the Potency was “inactive”.
In the case of `Cc1ccc(C)c(NC(=O)c2ccccc2O)c1`, the Potency is reported as inconclusive: 1 µM [activator, partial curve, poor fit].
For `COc1ccc(CSc2nnc(N)s2)cc1F`, the Potency was “inactive”.
For `COc1cccc(-c2nnc(SCc3ccccn3)n2C)c1`, the Potency was “inactive”.
In the case of `Cc1c(C(=O)O)oc2ccc(S(=O)(=O)N(CC(C)C)CC(C)C)cc12`, the Potency is reported as “inactive”.
In the case of `COc1ccccc1-c1nc(C#N)c(N2CCN(C(c3ccccc3)c3ccccc3)CC2)o1`, the Potency is reported as inconclusive: 1.12 µM [inhibitor, partial curve, poor fit].
With `CCCOc1ccc(N2C(=O)[C@@H]3[C@H](ON(c4ccccc4)[C@H]3c3ccc(O)c(OC)c3)C2=O)cc1` the Potency was inconclusive: 3.55 µM [activator, single point].
For `CCOC(=O)C1(CCOc2ccccc2)CCN(Cc2cccs2)CC1`, the Potency was inconclusive: 35.5 µM [inhibitor, single point].
For `COCCNC(=O)NC1(C(F)(F)F)Oc2ccc(Cl)cc2O1` (centres undefined), the Potency was inconclusive: 23.1 µM [inhibitor, single point].
In the case of `O=C(N/N=C/c1ccc(Cl)cc1)c1cc(-c2cccnc2)nc2ccccc12`, the Potency is reported as inconclusive: 2.24 µM [inhibitor, full curve, poor fit].
With `O=C(Nc1cnccn1)c1csc2ccccc12` the Potency was “inactive”.
For `N#Cc1cccc(NC(=O)CSc2ccccc2)c1`, the Potency was “inactive”.
With `COC(=O)c1cc(S(=O)(=O)NCC2CCN(Cc3cc(C)ccc3C)CC2)c[nH]1` the Potency was inconclusive: 10 µM [inhibitor, partial curve, poor fit].
For `Cc1cccc(C)c1OC(=O)Cc1ccccc1[N+](=O)[O-]`, the Potency was “inactive”.
For `CCc1ccc(N(CC)C(=O)c2ccc3c(=O)n4c(nc3c2)CCCCC4)cc1`, the Potency was “inactive”.
For `CC(C)c1nc2oc3c(NCc4cccnc4)ncnc3c2c2c1CCC2`, the Potency was “inactive”.
In the case of `COC(=O)c1c(-c2cccs2)csc1NC(=O)c1ccc(Cl)cc1`, the Potency is reported as “inactive”.
In the case of `CCCN(CC(=O)Nc1ccccc1OC)C(=O)c1ccc(S(=O)(=O)Nc2ccccc2)cc1`, the Potency is reported as inconclusive: 35.5 µM [inhibitor, single point].
In the case of `Cc1ccc(CNC(=O)CSc2ccsc2[N+](=O)[O-])cc1`, the Potency is reported as inconclusive: 7.08 µM [inhibitor, partial curve, poor fit].
With `COc1ccc(/C(C)=N/NC2=NCCN2)cc1Cl` the Potency was inconclusive: 10 µM [inhibitor, partial curve, poor fit].
For `CCOC(=O)N1CCC(NC(=O)C2CCN(c3ccc(N4CCOCC4)nn3)CC2)CC1`, the Potency was “inactive”.
For `CCOC(=O)c1c(C)sc2c1N(C(=O)CCl)c1cc(Cl)ccc1S2`, the Potency was inconclusive: 35.5 µM [inhibitor, single point].
In the case of `Cc1nc(-c2ccc(C(F)(F)F)cc2)sc1C(=O)NN`, the Potency is reported as inconclusive: 12.6 µM [inhibitor, single point].
With `COC(=O)Cc1ccc(NC(=S)N2CCCCC2C)cc1` (centres undefined) the Potency was inconclusive: 10 µM [activator, partial curve, poor fit].
For `CCCCN1C(=O)Cc2c1nc(N)c1c(N)nc(N(CCC)CCC)c(C#N)c21`, the Potency was “inactive”.
In the case of `O=C(CSc1nnc(C2CC2)n1-c1ccccc1)NCCc1ccccc1`, the Potency is reported as inconclusive: 3.16 µM [inhibitor, partial curve, poor fit].
With `Oc1ccccc1CN1CCCN(Cc2ccccc2O)C1` the Potency was active: 1.46 µM.
For `N#Cc1nc(-c2ccco2)oc1N1CCN(Cc2ccccc2)CC1`, the Potency was inconclusive: 35.5 µM [inhibitor, single point].
